Two substances from paper PMC3735604 can be followed below.

Sequences of proteins named here, by UniProt entry; tags and fusion partners are left off. A change or cut given only in a name is not applied to a line headed by its entry. A line that says so, or that is headed by a name, gives the form on record, which may keep a tag or linker.
UniProt O88737: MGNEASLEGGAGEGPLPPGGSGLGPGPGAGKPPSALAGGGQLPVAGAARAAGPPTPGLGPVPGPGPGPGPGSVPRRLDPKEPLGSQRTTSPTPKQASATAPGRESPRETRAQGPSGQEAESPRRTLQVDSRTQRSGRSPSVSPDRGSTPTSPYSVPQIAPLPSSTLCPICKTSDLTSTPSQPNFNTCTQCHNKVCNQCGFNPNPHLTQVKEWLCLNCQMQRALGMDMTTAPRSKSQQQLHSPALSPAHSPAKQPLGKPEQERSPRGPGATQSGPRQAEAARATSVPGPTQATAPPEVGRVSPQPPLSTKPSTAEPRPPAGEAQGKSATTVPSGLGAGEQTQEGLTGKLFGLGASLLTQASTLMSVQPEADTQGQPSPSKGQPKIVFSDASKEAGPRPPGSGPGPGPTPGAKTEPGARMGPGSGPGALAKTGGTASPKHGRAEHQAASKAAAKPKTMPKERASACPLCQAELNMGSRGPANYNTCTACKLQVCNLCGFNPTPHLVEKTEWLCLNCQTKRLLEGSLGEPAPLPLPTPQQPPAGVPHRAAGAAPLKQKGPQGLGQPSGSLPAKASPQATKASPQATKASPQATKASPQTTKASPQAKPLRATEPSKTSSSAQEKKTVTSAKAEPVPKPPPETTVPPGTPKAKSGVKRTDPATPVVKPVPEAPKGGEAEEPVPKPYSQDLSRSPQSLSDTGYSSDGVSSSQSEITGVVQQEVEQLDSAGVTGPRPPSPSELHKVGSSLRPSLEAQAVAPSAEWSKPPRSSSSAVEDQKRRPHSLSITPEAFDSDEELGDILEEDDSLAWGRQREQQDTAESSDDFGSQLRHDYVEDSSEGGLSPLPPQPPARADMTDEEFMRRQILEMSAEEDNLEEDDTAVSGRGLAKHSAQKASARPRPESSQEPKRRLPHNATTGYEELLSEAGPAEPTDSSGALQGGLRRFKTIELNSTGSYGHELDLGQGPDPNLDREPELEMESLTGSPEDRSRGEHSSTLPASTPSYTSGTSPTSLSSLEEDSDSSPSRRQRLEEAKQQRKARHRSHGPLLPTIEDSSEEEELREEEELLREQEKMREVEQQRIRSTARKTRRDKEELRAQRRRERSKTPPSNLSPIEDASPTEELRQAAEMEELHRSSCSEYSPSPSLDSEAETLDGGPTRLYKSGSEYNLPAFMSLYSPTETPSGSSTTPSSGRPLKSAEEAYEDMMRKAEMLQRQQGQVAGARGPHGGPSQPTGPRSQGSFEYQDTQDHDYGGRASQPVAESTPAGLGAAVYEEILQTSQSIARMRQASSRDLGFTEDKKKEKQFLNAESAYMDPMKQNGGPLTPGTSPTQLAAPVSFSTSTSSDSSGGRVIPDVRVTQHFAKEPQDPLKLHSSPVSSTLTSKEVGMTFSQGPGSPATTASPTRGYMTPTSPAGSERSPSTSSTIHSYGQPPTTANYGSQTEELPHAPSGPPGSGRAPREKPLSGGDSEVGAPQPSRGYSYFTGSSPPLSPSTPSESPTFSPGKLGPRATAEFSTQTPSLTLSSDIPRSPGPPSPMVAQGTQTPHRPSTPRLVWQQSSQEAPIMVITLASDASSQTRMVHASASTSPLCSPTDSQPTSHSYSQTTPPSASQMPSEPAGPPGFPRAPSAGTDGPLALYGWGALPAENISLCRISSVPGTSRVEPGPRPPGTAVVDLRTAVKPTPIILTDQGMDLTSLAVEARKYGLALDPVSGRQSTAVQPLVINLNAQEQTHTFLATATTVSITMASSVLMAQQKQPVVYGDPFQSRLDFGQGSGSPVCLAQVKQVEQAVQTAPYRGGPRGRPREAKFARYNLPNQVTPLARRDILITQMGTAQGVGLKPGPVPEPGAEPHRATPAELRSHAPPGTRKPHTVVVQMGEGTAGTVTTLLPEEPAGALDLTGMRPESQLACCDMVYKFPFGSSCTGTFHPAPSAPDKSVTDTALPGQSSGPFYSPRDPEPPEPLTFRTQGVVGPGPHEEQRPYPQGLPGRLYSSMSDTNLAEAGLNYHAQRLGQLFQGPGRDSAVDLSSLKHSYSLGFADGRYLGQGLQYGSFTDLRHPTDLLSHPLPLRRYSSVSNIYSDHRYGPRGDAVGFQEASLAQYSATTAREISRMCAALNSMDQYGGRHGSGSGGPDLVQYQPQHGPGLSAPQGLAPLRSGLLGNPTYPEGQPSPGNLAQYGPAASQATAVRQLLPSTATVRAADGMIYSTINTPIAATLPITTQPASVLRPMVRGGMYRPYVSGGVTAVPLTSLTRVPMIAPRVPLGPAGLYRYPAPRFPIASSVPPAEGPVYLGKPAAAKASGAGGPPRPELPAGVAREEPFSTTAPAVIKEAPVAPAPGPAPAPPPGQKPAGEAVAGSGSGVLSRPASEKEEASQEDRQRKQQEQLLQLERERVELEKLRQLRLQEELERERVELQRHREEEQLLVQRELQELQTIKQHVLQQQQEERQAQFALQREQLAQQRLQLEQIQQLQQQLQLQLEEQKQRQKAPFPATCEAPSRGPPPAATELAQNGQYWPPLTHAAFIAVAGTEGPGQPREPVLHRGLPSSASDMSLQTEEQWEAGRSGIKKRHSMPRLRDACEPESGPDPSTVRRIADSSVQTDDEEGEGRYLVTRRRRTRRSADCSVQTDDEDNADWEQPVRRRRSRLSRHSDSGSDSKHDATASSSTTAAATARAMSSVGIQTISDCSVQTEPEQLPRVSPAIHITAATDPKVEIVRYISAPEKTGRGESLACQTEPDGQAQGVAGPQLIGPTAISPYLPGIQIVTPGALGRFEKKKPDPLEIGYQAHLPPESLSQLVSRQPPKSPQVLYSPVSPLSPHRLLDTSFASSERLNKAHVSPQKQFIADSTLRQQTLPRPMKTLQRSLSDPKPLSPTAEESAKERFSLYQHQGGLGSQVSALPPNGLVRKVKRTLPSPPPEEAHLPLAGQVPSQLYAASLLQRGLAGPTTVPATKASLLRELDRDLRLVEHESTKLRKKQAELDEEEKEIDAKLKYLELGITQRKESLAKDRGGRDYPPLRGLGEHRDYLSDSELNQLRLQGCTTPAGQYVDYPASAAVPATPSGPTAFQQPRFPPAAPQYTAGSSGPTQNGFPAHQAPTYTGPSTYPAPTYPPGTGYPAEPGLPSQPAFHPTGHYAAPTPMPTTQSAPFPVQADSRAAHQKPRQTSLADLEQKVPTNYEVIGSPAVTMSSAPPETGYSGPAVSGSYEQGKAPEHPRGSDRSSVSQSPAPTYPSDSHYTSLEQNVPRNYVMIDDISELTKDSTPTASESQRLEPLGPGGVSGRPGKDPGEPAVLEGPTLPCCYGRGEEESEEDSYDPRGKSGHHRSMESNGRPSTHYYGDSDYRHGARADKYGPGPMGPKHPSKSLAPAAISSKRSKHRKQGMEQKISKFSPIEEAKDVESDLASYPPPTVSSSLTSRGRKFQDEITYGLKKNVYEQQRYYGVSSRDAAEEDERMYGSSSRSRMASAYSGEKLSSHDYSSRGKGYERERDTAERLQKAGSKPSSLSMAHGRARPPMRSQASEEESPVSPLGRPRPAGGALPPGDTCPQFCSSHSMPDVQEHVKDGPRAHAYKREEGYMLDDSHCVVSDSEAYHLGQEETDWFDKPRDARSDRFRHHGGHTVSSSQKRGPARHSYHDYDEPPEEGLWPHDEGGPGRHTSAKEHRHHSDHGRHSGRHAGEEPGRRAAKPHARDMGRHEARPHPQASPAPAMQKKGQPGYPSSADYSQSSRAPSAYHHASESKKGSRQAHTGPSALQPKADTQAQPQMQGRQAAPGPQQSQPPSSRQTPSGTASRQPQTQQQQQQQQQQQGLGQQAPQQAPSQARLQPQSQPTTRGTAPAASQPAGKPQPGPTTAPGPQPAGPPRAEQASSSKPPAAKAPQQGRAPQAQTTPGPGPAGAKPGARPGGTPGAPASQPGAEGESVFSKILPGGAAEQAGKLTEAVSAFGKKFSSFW
RIBEYE (P56546-2, form named): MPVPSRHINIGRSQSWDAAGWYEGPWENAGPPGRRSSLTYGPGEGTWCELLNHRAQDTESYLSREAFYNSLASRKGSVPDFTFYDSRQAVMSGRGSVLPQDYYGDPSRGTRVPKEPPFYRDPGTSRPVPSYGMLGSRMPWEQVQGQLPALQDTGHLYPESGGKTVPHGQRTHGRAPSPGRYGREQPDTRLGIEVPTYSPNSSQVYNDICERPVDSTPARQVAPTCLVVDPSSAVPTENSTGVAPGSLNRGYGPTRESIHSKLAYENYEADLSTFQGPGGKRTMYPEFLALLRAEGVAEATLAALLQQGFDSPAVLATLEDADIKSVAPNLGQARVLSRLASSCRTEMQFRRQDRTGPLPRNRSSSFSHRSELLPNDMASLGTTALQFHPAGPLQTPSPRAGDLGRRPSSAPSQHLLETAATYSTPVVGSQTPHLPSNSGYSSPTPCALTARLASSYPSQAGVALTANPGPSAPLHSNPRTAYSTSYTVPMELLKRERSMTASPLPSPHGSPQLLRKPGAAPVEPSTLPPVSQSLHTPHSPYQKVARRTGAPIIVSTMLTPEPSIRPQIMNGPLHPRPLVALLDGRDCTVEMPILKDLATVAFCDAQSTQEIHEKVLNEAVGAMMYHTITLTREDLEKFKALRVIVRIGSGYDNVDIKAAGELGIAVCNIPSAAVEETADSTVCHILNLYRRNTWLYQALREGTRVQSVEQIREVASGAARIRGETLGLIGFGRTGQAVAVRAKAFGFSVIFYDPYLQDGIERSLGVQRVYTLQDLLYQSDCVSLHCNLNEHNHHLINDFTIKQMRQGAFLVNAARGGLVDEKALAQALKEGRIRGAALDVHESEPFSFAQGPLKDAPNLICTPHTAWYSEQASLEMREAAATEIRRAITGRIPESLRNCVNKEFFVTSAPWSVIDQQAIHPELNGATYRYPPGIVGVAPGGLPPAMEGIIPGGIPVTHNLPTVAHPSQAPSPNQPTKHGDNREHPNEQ

In the assay the target is Bassoon (mouse (endogenous in mouse retina)) (UniProt O88737). Briefly: proximity ligation; in situ PLA (Duolink, anti-rabbit PLUS and anti-mouse MINUS probes) on 12 µm vertical cryosections of wild-type mouse retina; primary antibodies overnight at room temperature; signal when the two antigens are <40 nm apart.

These are yes or no findings as the source states them, for the method shown. Binding seen in cells or lysates may run through a third protein. Some results given as binding are weak or reduced against the parent protein; the word gives no strength.

As to RIBEYE (from UniProt P56546-2 1-988), the binding result is “binds”.
Turning to “full-length Piccolo (from UniProt Q9QYX7-1 1-5068)”, the binding result is “binds”.
